# Results of single-concentration screens

Mtb glucose medium: 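Phenotypic screen: M. tuberculosis growth, glucose 7H9 medium, 3 days; the read-out is not stated. Compounds at 50 µM. Direction is inferred from retests: higher values go with more growth inhibition. About 69,000 compounds were tested under these conditions; 1.1% (about 760) showed 50% or more at least once.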
Mtb cholesterol medium: 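Whole-cell growth test on Mycobacterium tuberculosis, read after 4 days in a medium based on cholesterol and the lipid DPPC; the read-out is not stated. Tested at 50 µM. Higher reads as more growth inhibition (inferred: compounds with an IC50 in retests scored well above the rest). Of about 69,000 compounds tested this way, about 370 (0.54%) reached 50% or more in at least one test.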

Each number is a percent effect as filed.
How 0% and 100% were set is not recorded. Most values in the screen are low, and negative values occur.
Compounds were drawn at random from those tested, without regard to their results.
Two or more numbers in one place are separate tests of the same structure; such repeats can differ widely.

SMILES | Mtb glucose medium | Mtb cholesterol medium
Cc1cc(N2CCC(O)CC2)nc(C)n1 | -8.221 and -3.895 | -2.836 and 3.026
[H][C@@]12CNC[C@]1([H])N(C(=O)c1cccnc1)CCO2 | -19.96 | -7.957
CCOC(=O)CN(C)C1CCc2ccccc21 (stereo not shown) | -15.95 | -16.42
Cn1nnnc1SCC(=O)N1CCN(C(=O)C2CC2c2cccs2)CC1 (stereo not shown) | -19.81 and -3.489 | -5.515
O=C(N[C@H]1CN2CCC1CC2)c1cc(Cn2cnc3ccccc32)[nH]n1 | 6.845 and 3.953 | -6.174
Cl.Cl.O=C(CN1CCN(CC(O)C2CC2)CC1)NCc1ccc(F)cc1 (stereo not shown) | 15.63 | 15.58
CN1C(=O)C2(CC(=O)Nc3[nH]ncc32)c2cc(F)ccc21 (stereo not shown) | 1.593 | -9.011
CSCCCNc1nccc(-c2cc(C(=O)O)ccn2)n1 | 29.43 | -13.66
Cn1cc(C2CCCN2C(=O)CCCc2ccccn2)cn1 (stereo not shown) | -36.13 and 1.606 | -0.3533
Cc1nc(COC(=O)c2cccnc2C)no1 | 2.547 | -16.3
O=C(c1ccc(N2CCCC2)nn1)N1CCc2ccccc21 | -15.84 and 4.144 | -18.97
Cn1ccc2ccc(C(=O)NC3CCOC(C)(C)C3)cc21 (stereo not shown) | 13.71 and 9.055 | -12.06
O=C(Nc1cccc(C(F)(F)F)c1)C1CC(=O)N(Cc2ccccn2)C1 (stereo not shown) | -55.23 | -40.98
CCc1cc(C(=O)N2CC[C@@H](c3ccc4c(c3)OCO4)[C@H](O)C2)[nH]n1 | -17.93 | 7.679
Cc1nccn1CC1CCCN(C(=O)Cc2ccsc2)C1 (stereo not shown) | -23.54 | -8.727
CC(C)c1cccc(-n2cc(O)c(C(=O)NCCCn3cccn3)n2)c1 | 16.16 | -7.842
O=C(c1ccncc1)N1CCCC1C1CCN(Cc2ccccc2)CC1 (stereo not shown) | -16.06 | -18.5
CCc1ccc(CN2CCN(c3ccc(C(N)=O)cn3)CC2)nc1 | 23.88 | 6.411
CCN(C(=O)c1c(Cl)cnn1CC)C(C)C(N)=O (stereo not shown) | -12.68 | 12.47
Cc1cccc(C(=O)N2CCCC(Cc3cncc4ccccc34)C2)n1 (stereo not shown) | 10.44 | -6.753
Cc1noc(CCCNC(=O)N2CCc3ccccc3C2CO)n1 (stereo not shown) | -21.72 | 10.82
Cc1cc(CN2CCCC(c3cc(C(F)(F)F)[nH]n3)C2)no1 (stereo not shown) | 21.55 | 24.85
CC(C)[C@@H]1CN(c2ncc(F)cn2)C[C@H]1NS(=O)(=O)N(C)C | -34.02 | 0.4035
Cc1nn(C)c(C)c1C1COCCN1c1ncncc1Br (stereo not shown) | -14.72 | -0.8159 and -14.89
Cc1ccc(C(=O)Nc2ccc(N(C)C)nc2)n1C | -2.742 | 2.779
CCN(C)C[C@@H]1CN(S(=O)(=O)c2ccc(OC)cc2)C[C@@H]1CO | -33.57 | -16.89 and -4.446
Cc1nn(C)cc1-c1cc(C(F)(F)F)nn1CCC#N | 17.83 | 26.79
Cc1nc(NCc2coc(-c3ccccc3)n2)cc(C2CCNCC2)n1 | -4.75 | 7.946
COc1ccccc1-c1ncc(CN2C[C@@H](N(C)C)[C@H](C(C)C)C2)s1 | 73.71 | 47.14
CC(C)COC(=O)N1CCCN(Cc2nnc(C(C)(C)C)o2)CC1 | 24.83 and -0.3004 | 17.48
Cc1ccccc1-n1cnnc1SCCOCC1CCCO1 (stereo not shown) | -2.888 | -8.555 and -5.93
O=c1ccc2c([nH]1)CCN(S(=O)(=O)c1ccc3c(c1)OCCO3)C2 | -2.913 and 12.72 | 6.732
O=C1CN(Cc2ccc3ccccc3n2)CCN1C1CCCC1 | 1.946 | 0.4156
CC(C)OC(=O)CCNC(=O)Nc1cccc2ncccc12 | 2.736 | 2.729
CC(Cn1cncn1)NC(=O)c1cn(Cc2ccccc2F)nn1 (stereo not shown) | 4.191 | -2.79
O=C(C1CCC1)N1CCC2(COCc3cnc(N4CCOCC4)nc32)C1 (stereo not shown) | -36.43 | -28.96
CCn1cc(CN2CCCN(C(=O)CCc3ccccc3)CC2)cn1 | 2.854 | -17.89
CCNC(=O)NC(=O)CN1CCOC(c2ccc(Br)cc2)C1 (stereo not shown) | 5.852 and 31.44 | 7.335
CC(C)C(C(=O)N1CCN(c2nccs2)CC1)n1cncn1 (stereo not shown) | -10.05 and -1.631 | 9.424
CC(=O)c1c(O)n(C)c2ccc(F)cc12 | 11.38 and 2.22 | 6.525
Cc1nn(C)c2c(N3CCN(C(=O)C4CCC4)CC3)ncnc12 | 5.423 | -27.15
CCN(CC1CCOC1)C(=O)c1ccc(-c2ccsc2)nc1C (stereo not shown) | 26.08 | -3.573
O=C(O)C(F)(F)F.[H][C@@]12CCCO[C@]1([H])[C@@H](OC)CN2CC1CC1 | 17.31 | 4.92
O=C(O)c1ccc2c(CN3CCCC3)c[nH]c2c1 | -18.78 | 9.918
O[C@H]1[C@H](NCCc2cnccn2)c2ccccc2C12CCNCC2 | 20.19 | -0.7193
Cc1nn(C2CCS(=O)(=O)C2)c(O)c1Cc1cccc(Cl)c1 (stereo not shown) | -1.978 | 13.78
COc1ccc(C2=NOC(C(=O)N3CCCc4ccccc43)C2)cc1 (stereo not shown) | 29.09 | 36.14
Cc1cc(C[C@@H]2COC[C@@H]2NC(=O)CN2CCCCCC2)on1 | -29 | -28.35

Once more, the final 4:

| SMILES | Mtb glucose medium | Mtb cholesterol medium |
|---|---|---|
| `O[C@H]1[C@H](NCCc2cnccn2)c2ccccc2C12CCNCC2` | 20.19 | -0.7193 |
| `Cc1nn(C2CCS(=O)(=O)C2)c(O)c1Cc1cccc(Cl)c1` (stereo not shown) | -1.978 | 13.78 |
| `COc1ccc(C2=NOC(C(=O)N3CCCc4ccccc43)C2)cc1` (stereo not shown) | 29.09 | 36.14 |
| `Cc1cc(C[C@@H]2COC[C@@H]2NC(=O)CN2CCCCCC2)on1` | -29 | -28.35 |

Source: ChEMBL document CHEMBL3988442, “University of Dundee, Small-Polar-MMV Screening Library” (2021).